Experimental data: PubChem BioAssay AID652272 (Drosophila RNAi Screening Center, 2013)
Screen: 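Genes whose knock-down decreases or increases Hedgehog reporter output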 (primary screen). Cell system: Drosophila clone 8 (Cl8) cells. Knock-down reagent: long dsRNA against Drosophila genes. Measurement: 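Plate reader light from a firefly reporter under a ptc promoter fragment that responds to Hedgehog, with Renilla light as transfection reference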. Scale: firefly Hh reporter signal: higher = more ptc reporter light; Renilla reference signal: higher = more Renilla control light. Rule for the call: 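Called a hit if the two-replicate mean z-score lies below -2 or above +3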. Calls: active = hit: reporter lowered or raised; inactive = not a hit.
In all, the deposit lists about 21,000 reagents; below is a random part of those that have a named target and a result. Of all reagents, 503 (2.4%) were called active. 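Raw plate light values, not normalised; calls rest on replicate z-scores that were not deposited; hits include reporter decreases as well as increases.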 A number with no mark means an inactive call. Not given: the amount of reagent, the time to read-out.

| gene | DRSC id | firefly Hh reporter signal, replicate 1 | firefly Hh reporter signal, replicate 2 | firefly Hh reporter signal, replicate 3 | Renilla reference signal, replicate 1 | Renilla reference signal, replicate 2 |
| --- | --- | --- | --- | --- | --- | --- |
| CG13311 | DRSC09982 | 44320 | 68840 | – | 4672 | 3312 |
| Mst27D | DRSC00967 | 7.20e5 | 1.84e5 | – | 35475 | 8308 |
| CG15743 | DRSC19709 | 86667 | 2.06e5 | – | 2219 | 7296 |
| CG43163 | DRSC10748 | 66401 | 46806 | – | 10154 | 4162 |
| CG10064 | DRSC09689 | 43318 | 47810 | – | 5170 | 3233 |
| CG11263 | DRSC09832 | 27459 | 52177 | 49180 | 5718 | 3065 |
| CG32271 | DRSC08198 | 95588 | 28155 | – | 3553 | 199 |
| CG16753 | DRSC08489 | 1.45e5 | 84885 | – | 4613 | 2758 |
| CG10694 | DRSC14263 | 5.18e5 | 76086 | – | 26784 | 2612 |
| Fadd | DRSC14122 | 8.20e5 | 1.60e5 | – | 42791 | 11608 |
| CG13004 | DRSC19523 | 66371 | 1.83e5 | – | 2075 | 7669 |
| Acn | DRSC02062 | 1.00e5 | 66272 | – | 3906 | 2699 |
| CG14564 | DRSC11725 | 1.59e5 | 1.45e5 | – | 4881 | 7701 |

Already shown: entries from further up.
| gene | DRSC id | firefly Hh reporter signal, replicate 1 | firefly Hh reporter signal, replicate 2 | firefly Hh reporter signal, replicate 3 | Renilla reference signal, replicate 1 | Renilla reference signal, replicate 2 |
| --- | --- | --- | --- | --- | --- | --- |
| CG32271 | DRSC08198 | 95588 | 28155 | – | 3553 | 199 |
| CG16753 | DRSC08489 | 1.45e5 | 84885 | – | 4613 | 2758 |
| CG10694 | DRSC14263 | 5.18e5 | 76086 | – | 26784 | 2612 |

Additional reagents:
| gene | DRSC id | firefly Hh reporter signal, replicate 1 | firefly Hh reporter signal, replicate 2 | firefly Hh reporter signal, replicate 3 | Renilla reference signal, replicate 1 | Renilla reference signal, replicate 2 |
| --- | --- | --- | --- | --- | --- | --- |
| pcm | DRSC20361 | 98963 | 1.21e5 | – | 2352 | 2848 |
| Shaw | DRSC00433 | 1.86e5 | 79381 | – | 4769 | 7761 |
| Shaw | DRSC00788 | 2.08e5 | 6.84e5 | 86452 | 4888 | 37329 |
| Atg17 | DRSC12221 | 93877 | 1.40e5 | – | 3649 | 4445 |
| tyf | DRSC18382 | 66101 | 1.37e5 | – | 2080 | 5424 |
| Gpo3 | DRSC01978 | 83365 | 54841 | – | 2251 | 5307 |
| CG6330 | DRSC16022 | 82696 | 69666 | – | 1936 | 1992 |
| Alp11 | DRSC20080 | 55497 | 1.93e5 | – | 2032 | 8602 |
| CR34254 | DRSC09562 | 2.60e5 | – | – | 5392 | – |
| Mcm10 | DRSC03162 | 53130 | 65579 | – | 2597 | 2544 |
